Laboratory results published in article PMC11651612.
These are yes or no findings as the source states them, for the method shown. In cells and extracts the contact can be indirect. Here binding means that the protein was enriched with, or labelled near, the bait; the list need not be complete.

B1: Protein BFR2 (protein, UniProt J9VUN1 1-457)
chain: MSGPSLAQQLKQLHSNNVSVPDPESAYSNLDSHDIQRKGDEGREHYVDVGPSRLRMELGGTGGGTLTGPKYEGVKTGRMKIFDDDDEDEEENGGEEGSERYEDEDEEDEDEDEDEDDEEDDEDEDEEGESEDEDEEEQPQPRANGSKQALDPVASLRNSRLKDVEKGQAIRKQKALFESLITLRITFQKALTASNTVPATLPEDPENELASKKASILKSLSELNERLFTLRESIILPGESEEEVSLGKRKRAEGDDAQGEAYWIEAAKESLGIADRSHPQLVPILNKWSSKIQAASLQLGSKQAGGSKFLQQMKNGSGGVVEAIESGINSKREAEKTLMESEETGYRALLREVIESRSGSGPAADLTHLRREKKKKREAERGGSKGRKLRYTVHEKAQNFVVPIPLSQGWHEEQVDELFSSLFGGVGMKGATAEKSVGLDVGNADEGLAELGGLRVF
B2: Cystathionine beta-synthase (protein, UniProt J9VM44 1-398)
chain: MSNSTTQPQHHWQGVLSSALDAVGHTPLIRLDRIAAEEGVKCNLLGKCEFFSAGGSVKDRIAKRMIEHAEKSGQLIPGKSVVIEPTSGNTGIGLALACALKGYKCIITLPAKMSLEKEVMLRALGAEIVRTPTEAAFDSPESHIGVARTLQQAIPDAVILDQYSNPNNPLSHYFGTYEEIMYALKTSNLPRKDMTLLVAGAGTGGTITGLARAIRDSEAHIYPSDSDCSNLSNGKSNGLYASRALILAVDPVGSILGGGEPGNYEVEGIGYDFFPDVLDREPQLIDEWLKTTDDESFEATKRLIKREGLFVGGSSGSALAGALRYLQSPAGRHIAEDPEANVVILFPDGVRNYMSKPWFLTENNAQEGWELRSKIKEAIGRDLGDVHGGRAINNVNRH
B3: Protein CASP (protein, UniProt J9VZ01 1-673)
chain: MAEQNFSAALATWKEINLSELQKNLDTTAVELVDNQKENLVGRKKLAEQTREFKKLPDDAEKFAAIKVLLKAYQAEIDALTRRSKMSETSFLNVYKLLADAPDPYPLLDAAVDQTVKVAEARMLESELVRLREENGELKKSLGEASNLEEKRKKAESKVEQLEEKMDDLIQERVTQKENELNAEYDERMRNYEEREKDLQRQVEMVKKQLRDLHMSNESAEAKLLNANQRQEQDVAARLAELDMVAADLARANERVATVERRNEILRSEIESVRSGSQQADKVKGLEAQISELEAEASRILAALDAAKDAKAEADRQFKKQAEESTKEITARTTEVDGLKAKVKAMADYDEIKRELEIMKYVEFSGADFGDDDGEEPRLPDPNASVANKQRGQSLEKLLTSKNRRLLEDLTKLRVSWEDLSSEHAKAEEMIEGLQVDLALQRELVEKLEGDLMVLNNREDRAGTPGQGLAGLDIGNKPDGRASPANSGSQDTSILPIVTSQRDRFRQRNAELEDELRKQFETISDLRTEVKSLQTDNLKLYEKVRYMGSYRDSSFAKAGPSGGAYSSGGGSGGLLTGVLGRRDEEIGKYKDKYDESLNPFEAFKGREAQRAIQALNPVERGVFSLTRAIVGNKRARNLFILYAGSLHILILFILWNTMAASDSTSHPPVTIQP
B4: NADH-ubiquinone oxidoreductase 21.3 kDa subunit (protein, UniProt J9W086 1-216)
chain: MARPTALLRNAANAAKPKPMSADHTKYHVAPTGFWKKFRDTVVVNPEISSGLPIPTENRYPQPASRPETYATPATKASDPAFNPYWKRDARRSYPQTSVITQSHLSTLLLSSPALASLPSPETAVETKWESSGIAPASPPSDAQQVVPASKVPALADVLQKLPEGKAYLGGGLTTGQGEGLPPVPPPAQRNKKWVPKAGEPVPHGKYDYFPMYTVV
B5: Endoribonuclease YSH1 (protein, UniProt J9W491 1-770)
chain: MIPRRRHFKPAPQPTVQVLQPPDEDAPSLTITMLGAGQEVGRSCCVIEHRGKKIVCDAGLHPAQPGIGALPFIDELDWSTVDAMLITHFHVDHAAALPYIMEKTNFKDGNGKVYMTHATKAIYGLTMMDTVRLNDQNPDTSGRLYDEADVQSSWQSTIAVDYHQDIVIAGGLRFTPYHAGHVLGASMFLIEIAGLMILYTGDYSREEDRHLVMAEIPPVKPDVMICESTFGVHTLPDRKEKEEQFTTLVANIVRRGGRCLMPIPSFGNGQELALLLDEYWHDHPELQNIPVYFASSLFQRGMRVYKTYVHTMNANIRSRFARRDNPFDFRFVKWLKDPQKLRENKGPCVIMSSPQFMSFGLSRDLLEEWAPDSKNGVIVTGYSIEGTMARTLLSEPDHIESLKGGNIPRRLTVKEISFGAHVDYAQNSKFIQEIGAQHVVLVHGEASQMGRLRAALRDTYAAKGQEINIHTPKNCEPLTLTFRQERMVKAIGSLAATRPEHGTSVKGLLVSKDFSYTLLSPADLHDFTGLSTSTIIQKQGVAISVDWAVVRWYLEGMYGEVEEGVVEEEKAAFTIMNGVQVVRISPTAVELRWKSSSSNDMIADSALALLLGIDGSPATAKLTASPNKHACNHSHSHSDLQPHTYPGDKSAKEVASNPEFERLRMFLEAHFGHVEGPNLRPPLPRGADGDGNDDQDGDDWLTMDVKLDNHTARIDLISMRVDSESIELQKRVETVVEMALTTVKSLSQTFLGGGLDVDMVEKVEPSESDS
B6: PHD-type domain-containing protein (protein, UniProt J9VUG6 1-560)
chain: MANESVEGSTWGRVLICGGTDWATNGRKERSSGKAPTDLMEPHILRSLCNVKASKIITGPSANYAIVLDIHGATYLFGRPPAMVQSNGVISESTPLKISPSSVGSPKGTKWVNGAAGRSHFLLVDSKGDVWGCGNNVFGQIGVPVATVVDKLTKVTGPWVKDPEAKVVQVTAGHTFSLFLTSTGQVYASGSSEFGQLGNGKTGERLVKAGKIAYDIEVPPRLVQGFENVKIIEIASGNQHSLALDDNGYVYSWGFAGYSRLGLQDQKDRLLPTIVPSFAGNNELTRARSIACGPTSSTVIDRQNMILIAGKWKLSGDGSTGQPYTRFKHIQDVMACKVIKTSSGGCTHFIITPDPEGGVMTVGFGQGVLYGELGLGSDSAKSATKPQKIIPLSGVDMIDVVGGAFFTLFLARPNLALSDLDRYPLHINSASLCLICNTDLEQDAPLECERCDQPYHIGCLSPPLSAVPEGEWFCPECALEADAGPDEPFKPALGITIPKPANGKKGVKQDVVETAGNPKALASATNGASTPSKFVKGGKRSREEERSAQESGKKARNSMG
B7: Thioesterase superfamily protein (protein, UniProt J9VJ33 1-291)
chain: MALRCRFSCVRDYRAATSNRAFKRSIMSHIQTVHSKPTLAVTDDDAARLQEIYAKFQDPSSHYYIAPGSFGPEHEEDHRASHVPDPAYSLDAVANAKASSPFQGSQGQRGRVDDRPWLNEDSGRKEQALEYFKQQNHDTIGVLTWPVAWGDQDSFQHVNNVQILRWVESARIRYCESWAGKLGEKTVYDMLLAKGTGIILKEVSIKYKAPITYPDTLMISNCIHSVNVERASYGHQHIIWSLKDQQVKAVSDSTIVIYDYDNLKKGVMSDQLRELLLNVAGDNKSSGEHTK
B8: Large subunit ribosomal protein L14 (protein, UniProt J9VMD7 1-149)
chain: MIGLKGILNVIDNTGALKVECINVLKVKTRLKSTGFATVGDEIVCVVNKARPIPANEVIKNPNASSNIQKIRKGDVRRAVVVRVKKTTQRPDGSVVRFDDSAAVLLNNKGEMLGTRIVGPVASELRKIKGGAGSGGRWEKIVMLAPKVV
B9: Threonine aldolase (protein, UniProt J9VK75 1-458)
chain: MVRAACFKYASLPVRISTPIIFPTRTLATTAPIAMPIASSKSLADVTPDVGGQANVDQLHRVSRDFRSDTITIPTDAQLLCSLRATRGDDVYGEDTSTTALEKRIAKLTGKEAAMFAVSGTMTNQLAIRTHMKQPPHSVITDWRAHVHKMEAGGIAMFSQATTHQLVPENGLHLTVEDIEPALQLGTNIHIAPTKLICLENTLSGMIFPQEEIVKIGEMARKHDIGMHLDGARIWNVAADVIAKRGLNPNKEEDLQTVLTELIAPFDSASLCLSKGLGAPIGSALVGPKEFIDRAKWFRKAFGGGIRQAGGIAASADYAITHHFPRLIKTHELASRLEQGLRELGCDILAPVDTSMVFFQPKPIGLPLDAVMARLAALPDPIIIGGQRCVVHHQISPQAIEDFIGCVAEMKKEKEENGEYKVTALGQEEKDKLSRFVSPEIKNTTSEAGLRTKAALGY

biological target: T1, Cdc3-mCherry (C. neoformans) (UniProt J9VUF2); test: affinity purification with mass spectrometry; mCherry-tagged septin captured from C. neoformans lysate on RFP-Trap agarose, 4 h at 4°C, washed with TBS with 2 M urea pH 7.5; GeLC-MS/MS; untagged H99 as negative control; hits logFC >2 and adjusted p <0.001 (text-named hits <0.05); exponential cultures at ~25°C or shifted to 37°C for 2 h; N = 5
T1 sequence: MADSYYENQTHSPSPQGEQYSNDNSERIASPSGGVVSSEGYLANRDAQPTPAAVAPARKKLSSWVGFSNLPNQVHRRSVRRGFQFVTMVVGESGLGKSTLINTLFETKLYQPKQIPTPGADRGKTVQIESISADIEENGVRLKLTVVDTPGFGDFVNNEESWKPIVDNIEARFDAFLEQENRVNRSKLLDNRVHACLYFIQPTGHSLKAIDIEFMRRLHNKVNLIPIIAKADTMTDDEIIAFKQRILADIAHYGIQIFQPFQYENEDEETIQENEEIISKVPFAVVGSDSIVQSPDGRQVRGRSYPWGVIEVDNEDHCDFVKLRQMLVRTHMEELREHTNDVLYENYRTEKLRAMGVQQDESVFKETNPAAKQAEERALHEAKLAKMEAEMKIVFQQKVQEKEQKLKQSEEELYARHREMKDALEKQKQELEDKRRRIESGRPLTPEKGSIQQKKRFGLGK

binding, binds:
B1
B2
B3
B4
B5
B6
B7
B8
B9
